This note sets out measurements from patent US20100172900A1.

Sequences of proteins named here, by UniProt entry; tags and fusion partners are left off. A change or cut given only in a name is not applied to a line headed by its entry.
UniProt Q7Z6A9: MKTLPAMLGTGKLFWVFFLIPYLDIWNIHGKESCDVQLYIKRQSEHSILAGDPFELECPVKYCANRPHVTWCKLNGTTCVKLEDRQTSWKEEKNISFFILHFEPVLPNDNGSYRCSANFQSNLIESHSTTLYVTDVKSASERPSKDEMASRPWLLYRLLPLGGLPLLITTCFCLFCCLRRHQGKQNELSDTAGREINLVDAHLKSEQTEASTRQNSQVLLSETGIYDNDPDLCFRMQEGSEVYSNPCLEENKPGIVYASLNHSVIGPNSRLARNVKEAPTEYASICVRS

These are yes or no findings as the source states them, for the method shown. Some results given as binding are weak or reduced against the parent protein; the word gives no strength.

In assay [1] the target is recombinant human BTLA fusion protein (human) (UniProt Q7Z6A9). Nature of the assay: BIAcore, antibody capture method. (In SPR one partner is held on a chip, and binding of the other changes the refractive index at the surface.)
Assay [2] has the same target. Nature of the assay: ELISA, plate coated with receptor-Ig fusion, antibody at 1 ug/mL, HRP-conjugated detection antibody. Background: In an ELISA, binding on a coated surface is turned into a signal by an enzyme label.

B1: 3C2 human monoclonal antibody (antibody, IgG1, V domains shown)
VH: QVQLQESGPGLVKPSETLSLTCTISGGSISNYYWNWIRQPPGKGLEWIGYIYYSTSTKYNPSLKSRVTMSVETSKNQFSLKLSSVTAADTAVYYCARVKVYSTGWFFDYWGQGTLVTVSS
VL: AIQLTQSPSSLSASVGDRVTITCRASQGISSALAWYQQKPGKAPKLLIYDASSLESGVPSRFSGSGSGTDFTLTISSLQPEDFATYYCQQFNSYPLTFGGGTKVEIK
In the case of B1, the binding result in assay [1] and in assay [2] was “binds” throughout.
